Assay results as given in patent publication US8609667B2, “E-type phenyl acrylic ester compounds containing substituted anilino pyrimidine group and uses thereof” (Sinochem Corporation, priority 2009, dated 2013).
Some results were stated once for a whole list of compounds, not compound by compound.

What was measured:
Type in all cases: in vivo
[1] = test system: adults of Tetranychus cinnabarinus; assay: Acaricidal activity against adults in greenhouse (spray on broadbean shoots, mortality after 72 hrs)
Procedure: (§1) The activity determinations of compounds of the present invention against adults, nymphs and eggs of Tetranychus cinnabarinus were carried out in greenhouse by the following procedures:
The activity determination against adults in greenhouse: the compounds were weighed and dissolved in acetone to obtain mother liquid, and then the mother liquid was diluted to required concentration with placed running water containing 0.1% of Tween 80. Broadbean shoots with two true leaves were used to inoculate adults of Tetranychus cinnabarinus which were counted, spraying treatment was performed by portable sprayer (DeVilbiss Atomizer M163), 3 replicates were set for each treatment. After treatment the broadbean shoots were maintained in standard observation room. Scores were conducted and mortalities were calculated after 72 hrs.

[2] = test system: eggs of Tetranychus cinnabarinus; assay: Activity against eggs in greenhouse (hatching inhibition rate); settings: dose 2.5 mg/L
Procedure: as §1
The activity determination against eggs in greenhouse: Broadbean shoots in pot with one true leaf retained were taken, ten healthy female adults of Tetranychus cinnabarinus were inoculated to the leaves, the adults were removed after 24 hrs and the eggs were counted and then sprayed. The treatment of test compounds and spaying method were the same as that of the activity determination in greenhouse against adults. Once eggs of blank control were all hatched after 5 days, unhatched eggs in each treatment were investigated and the hatching inhibition rate were calculated.

[3] = test system: nymphs of Tetranychus cinnabarinus; assay: Acaricidal activity against nymphs in greenhouse (spray, mortality after 72 hrs); settings: dose 0.16 mg/L
Procedure: as §1
The activity determination against nymphs in greenhouse: broadbean shoots with two true leaves in pot were taken, ten healthy female adults of Tetranychus cinnabarinus were inoculated to the leaves, the adults were removed after 24 hrs and the eggs were cultivated into nymphs after 7-10 days. The nymphs were counted and then sprayed. 3 replicates were set for each treatment. And then were maintained in standard observation room. Scores were conducted and mortalities were calculated after 72 hrs.

SMILES: CO/C=C(/C(=O)OC)c1ccccc1COc1cc(C(F)(F)F)nc(Nc2cccc(C(F)(F)F)c2)n1 [Compound 7]
- control against adults of Tetranychus cinnabarinus ([1]; dose 100 mg/L): more than 90%

SMILES: CO/C=C(/C(=O)OC)c1ccccc1COc1cc(C(F)(F)F)nc(Nc2ccc(F)cc2F)n1 [Compound 8]
- hatching inhibition rate against eggs of Tetranychus cinnabarinus [2]: no less than 90%
- control against adults of Tetranychus cinnabarinus ([1]; dose 0.625 mg/L): more than 85%

SMILES: CO/C=C(/C(=O)OC)c1ccccc1COc1cc(C(F)(F)F)nc(Nc2ccc(F)c(F)c2F)n1 [Compound 15]
- control against nymphs of Tetranychus cinnabarinus [3]: more than 60%
- hatching inhibition rate against eggs of Tetranychus cinnabarinus [2]: no less than 90%

SMILES: CO/C=C(/C(=O)OC)c1ccccc1COc1cc(C(F)(F)F)nc(Nc2ccc(Cl)c(Cl)c2Cl)n1 [Compound 16]
- hatching inhibition rate against eggs of Tetranychus cinnabarinus [2]: no less than 90%
